Measurements reported in the supplement of paper PMC12889115.
The other results are listed elsewhere or left out. These are raw signals, not scaled to a control.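 In the initial screen, polymyxin B was used at a concentration that permeabilizes Salmonella's outer membrane but not its inner membrane. Maximum growth was set by DMSO wells with or without polymyxin B. Since plates varied, data were ranked per plate, and compounds giving the lowest OD600 advanced as hits.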

System: Salmonella enterica serovar Typhimurium SL1344
Experiment: bacterial growth OD600 after 18 h with compound and polymyxin B; higher = more bacterial growth (less inhibition)
Settings: 50 µM, Mueller-Hinton broth

Compound	bacterial growth OD600 (polymyxin B 0.75 µg/mL)	bacterial growth OD600 (polymyxin B 1 µg/mL)
C=C(C)CNC(=O)c1cc(OC)ccc1OC1CCN(C2CCCC2)CC1	0.794	
CC(C)(C)NC(=O)CCN1Cc2ccccc2OC(c2ccccc2F)C1 (stereo not drawn)	0.925	
COC(=O)c1ccc(C(=O)NC2CCCN(Cc3cccc(OC)c3)C2)cc1 (stereo not drawn)	0.762	
O=C(CCC(F)(F)F)N1CCCC(N2CCN(c3cccc(Cl)c3)CC2)C1 (stereo not drawn)		0.777
CCS(=O)(=O)Nc1cc(C(=O)N(C)C(C)c2nccs2)c2c(c1)nc(-c1ccccc1)n2C (stereo not drawn)	0.829	
CN(C(=O)c1cccs1)C(Cc1ccccc1)C1CCN(C(=O)CC2=CCCCC2)CC1 (stereo not drawn)	0.013	
CCCCc1nc(CN2CCOc3ccc(CN4C[C@@H](C)O[C@@H](C)C4)cc3C2)c[nH]1	0.812	
CN(CCC1CCOCC1)C(=O)c1ccc2oc(Cc3ccc(Cl)cc3)nc2c1		1.15
